From paper PMC4121141, “Structural Basis for TatA Oligomerization: An NMR Study of Escherichia coli TatA Dimeric Structure” (PLoS ONE, 2014)
Results are given in words; binding and its absence hold for the method and conditions named.

Target: Escherichia coli TatA, wild type, full length (Escherichia coli) (UniProt P69428)
Assay: condition: only at high detergent-to-protein molar ratio (DPC, DPR >200); NMR 1H-15N HSQC and solution NMR structure at high detergent-to-protein ratio; full-length TatA in DPC/dDPC micelles at high DPR (>200; 300), 35°C; one set of cross peaks; both purified

B1: Escherichia coli TatA, wild type, full length (natural protein, UniProt P69428 1-89, looked up)
chain: MGGISIWQLLIIAVIVVLLFGTKKLGSIGSDLGASIKGFKKAMSDDEPKQDKTSQDADFTAKTIADKQADTNQEQAKTEDAKRHDKEQV
notes: TatA, Escherichia coli, 89 amino acids, one transmembrane helix (Ile6-Phe20) and one amphipathic helix (Lys24-Met43); 15N- or 13C/15N-labelled for NMR; also called wt-TatA; wild-type TatA; source: in C12E9 with Superdex 200 gel filtration for blue-native PAGE
  binding: no binding
